In test [1] the target is T1, AChRα cytoplasmic domain peptide P2 (mouse).
T1 sequence (peptide, N-terminal biotin): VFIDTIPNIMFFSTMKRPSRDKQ
Briefly: pull-down.

Test [2] addresses T2, αDB1 peptide Y713-P (phosphorylated Y713) (mouse).
T2 sequence (peptide, phosphotyrosine at Y713 (pY); N-terminal DEST–Biotin–Ahx; C-terminal amide (NH2)): TQPEDGNYENESVRQ
The test is described as follows: pull-down.

In the next test the target is syntrophin-1-GFP (mouse). Briefly: co-IP.

No constants are given. Whether binding was seen depends on the method and setting. In cells and extracts the contact can be indirect. For part of these data: Binding can be weak; no strength is given. For part of these data: Where a sequence is shown, tags or fusion partners need not be part of it.

As to “Proline-rich domain of SH3BP2 fused to FLAG (mouse) (domain or fragment)”, the binding entry in test [1] is on record as “binds”; in test [2], “no binding”.

B1: GST-mGFP-SH3BP2-FLAG (natural protein)
chain: MAAEEMQWPVPMKAIGAQNLLTMPGGVAKAGYLHKKGGTQLQLLKWPLRFVIIHKRCIYYFKSSTSASPQGAFSLSGYNRVMRAAEETTSNNVFPFKIIHISKKHRTWFFSASSEDERKSWMAFVRREIGHFHEKKELPLDTSDSSSDTDSFYGAVERPIDISLSSYPMDNEDYEHEDEDDSYLEPDSPGPMKLEDALTYPPAYPPPPVPVPRKPAFSDLPRAHSFTSKSPSPLLPPPPPKRGLPDTGSAPEDAKDALGLRRVEPGLRVPATPRRMSDPPMSNVPTVPNLRKHPCFRDSVNPGLEPWTPGHGTSSVSSSTTMAVATSRNCDKLKSFHLSSRGPPTSEPPPVPANKPKFLKIAEEPSPREAAKFAPVPPVAPRPPVQKMPMPEATVRPAVLPRPENTPLPHLQRSPPDGQSFRGFSFEKARQPSQADTGEEDSDEDYEKVPLPNSVFVNTTESCEVERLFKATDPRGEPQDGLYCIRNSSTKSGKVLVVWDESSNKVRNYRIFEKDSKFYLEGEVLFASVGSMVEHYHTHVLPSHQSLLLRHPYGYAGPR
On to B1, for which the binding result with syntrophin-1-GFP (mouse) is given as “binds”.

These data come from publication doi:10.1101/2024.05.23.595491 (bioRxiv, 2024).
